Measurements taken from publication doi:10.1101/2025.10.27.684894, “Alternative splicing of synaptotagmin 7 regulates oligomerization and short-term synaptic plasticity” (bioRxiv, 2025).
These are yes or no findings as the source states them, for the method shown. For some assays here: Binding seen in cells or lysates may run through a third protein. Some entries that bind do so weakly or less than the wild type.

Chains of the proteins cited; added tags and fusions are not shown. Lines headed by an entry give the natural chain unless they say otherwise; changes in a name come on top. A line that says so, or that is headed by a name, gives the form on record, which may keep a tag or linker. Residues count along the entry.
UniProt Q9R0N7: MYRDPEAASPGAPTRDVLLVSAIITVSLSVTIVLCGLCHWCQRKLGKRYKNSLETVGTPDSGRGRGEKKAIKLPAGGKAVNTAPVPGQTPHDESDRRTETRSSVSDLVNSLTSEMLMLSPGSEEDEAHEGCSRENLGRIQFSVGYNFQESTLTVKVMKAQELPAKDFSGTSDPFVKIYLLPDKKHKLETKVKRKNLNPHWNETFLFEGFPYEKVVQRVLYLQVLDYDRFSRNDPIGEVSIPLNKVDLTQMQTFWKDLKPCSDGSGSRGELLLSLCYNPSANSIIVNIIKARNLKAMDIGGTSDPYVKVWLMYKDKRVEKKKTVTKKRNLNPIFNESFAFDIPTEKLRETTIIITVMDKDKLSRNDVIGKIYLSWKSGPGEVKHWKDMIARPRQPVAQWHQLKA
Halo-tagged α-syt7cyto (cytoplasmic domain of synaptotagmin 7 α, immobilised on HaloLink resin): residues 38-403 of Q9R0N7

Experiments:
[1] = biological target: α-syt7-fl-FLAG (full-length synaptotagmin 7 α with a FLAG tag) (mouse) (UniProt Q9R0N7); experiment: co-IP; anti-FLAG antibody on Dynabeads, lysate of rat hippocampal neurons expressing α-syt7-fl-FLAG; 25 mM Tris-HCl pH 7.4, 100 mM NaCl, 1 mM EGTA, 5% glycerol, 1% Triton X-100; no cross-linkers; control rabbit IgG beads; immunoblot
[2] = biological target: Halo-tagged α-syt7cyto (cytoplasmic domain of synaptotagmin 7 α, immobilised on HaloLink resin) (mouse) (UniProt Q9R0N7); experiment: pull-down; Halo-tagged bait immobilised on HaloLink resin (7 μM bait), prey syt1-fl in DOPC proteoliposomes; 25 mM HEPES pH 7.4, 100 mM KCl, 0.2 mM EGTA or 1.2 mM Ca2+; 1 h at 25 °C; supernatants analysed by SDS-PAGE and Western blot; both purified

Row | Molecule | binding [1] | binding [2]
1 | synaptotagmin 1 (endogenous, rat hippocampal neurons) (from UniProt P21707 1-421) | binds | –
2 | syt1-fl (full-length synaptotagmin 1, reconstituted into liposomes) (natural protein, rat, UniProt P21707 1-421, looked up, synaptotagmin 1, rat cDNA from T. C; Sudhof (Perin et al., 1990); the D374 mutation of that cDNA was corrected to glycine, so residue 374 is G; also called SUMO-syt1-fl; source: E. coli BL21(DE3), purified (with 0.9% CHAPS; cleaved from the beads with SUMO protease), reconstituted into DOPC proteoliposomes) MVSASHPEALAAPVTTVATLVPHNATEPASPGEGKEDAFSKLKQKFMNELHKIPLPPWALIAIAIVAVLLVVTCCFCVCKKCLFKKKNKKKGKEKGGKNAINMKDVKDLGKTMKDQALKDDDAETGLTDGEEKEEPKEEEKLGKLQYSLDYDFQNNQLLVGIIQAAELPALDMGGTSDPYVKVFLLPDKKKKFETKVHRKTLNPVFNEQFTFKVPYSELGGKTLVMAVYDFDRFSKHDIIGEFKVPMNTVDFGHVTEEWRDLQSAEKEEQEKLGDICFSLRYVPTAGKLTVVILEAKNLKKMDVGGLSDPYVKIHLMQNGKRLKKKKTTIKKNTLNPYYNESFSFEVPFEQIQKVQVVVTVLDYDKIGKNDAIGKVFVGYNSTGAELRHWSDMLANPRRPIAQWHTLQVEEEVDAMLAVKK | – | binds
